Assay results published in patent US4990531A, “Derivatives of 1-arylsulphonyl-2-pyrrolidinone and their use as medicaments” (Roussel Uclaf, priority 1988, dated 1991).

System: contractions induced by histamine, isolated ileum
Assay: Antagonism of histamine-induced contractions, isolated guinea-pig ileum
Conditions: histamine 1×10^-5 M; contact time one minute; read-out: Antagonism with various agents (IC50): Istam.
Protocol: The interaction of the compounds with various receptors was evaluated on the isolated ileum of a guinea-pig according to the following method.
Segments of the ileum of guinea-pigs of 2.5-3 cm were washed and immediately suspended in a bath containing 10 ml of Tyrode's solution at 37° C. and aerated with a mixture of oxygen (95%) and carbon dioxide (5%). After a stabilization period of at least 30 minutes contractions were recorded, while the preparation was maintained under constant tension of 1 g, by means of a detector connected to a polygraph. The agonistic action was evaluated by leaving the compound in contact with the isolated tissue for a period necessary to show the maximum […]; then it was washed with the Tyrode's solution. The following dose was added only after the preparation had returned to its base line. Arecoline was used as a reference product. The antagonist action was evaluated on the contractions induced by acetylcholine (1×10^-6 M), histamine (1×10^-5 M), serotonine (1×10^-6 M) and barium chloride (2×10^-4 M). […] The contact time before adding the agonist was one minute.
For each compound the does response curves are obtained with 4 to 6 different concentrations and 3 to 5 independent tests. The agonist activity is expressed by pD2 (negative logarithm of the dose which produces 50% of the maximum effect).

## CN(C)CCOC(c1ccccc1)c1ccccc1 [Diphenyldramine, reference compound]
  IC50: 830 nM
